PubChem BioAssay AID743454 – Peter MacCallum Cancer Centre | 2014

- Purpose: 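Genes whose loss kills vorinostat-resistant colon cancer cells under vorinostat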 (primary screen)
- Cell system: human HCT116-VR colon cancer cells, selected for vorinostat resistance
- Reagent: siRNA pool against human genes, 40 nM siRNA pool
- Timing: vorinostat for 24 h, read-out about 72 h after transfection
- Conditions: vorinostat at 2.5 µM final
- Read-out: 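Cell viability by CellTiter-Fluor and caspase 3/7 activity by luminescence, each scaled to mock wells per plate, duplicates averaged, then robust z-scored over all plates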
- Scale: viability robust z-score: higher = more viable cells than screen typical; caspase robust z-score: higher = more caspase 3/7 activity than screen typical
- Rule for the call: 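Hits are knock-downs in viability class RV1/RV2 or caspase class CA1/CA2, excluding ones that killed cells in the no-drug cell-count arm; hits then retested with single siRNAs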
This is a random part of about 18,000 deposited reagents. 450 of all reagents (2.5%) count as active. 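Single biological run; no consistent viability z cut-off exists, so the class columns, not z-scores, define the calls.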

gene | viability hit class | caspase hit class | viability robust z-score | caspase robust z-score | activity call
SLC38A3 | no change | no change | -1.54 | 3.61 | inactive
ST3GAL1 (ST3 beta-galactoside alpha-2,3-sialyltransferase 1) | no change | no change | 0.94 | -0.26 | inactive
CPB2 (carboxypeptidase B2) | no change | no change | -0.61 | -0.32 | inactive
HDAC9 (histone deacetylase 9) | no change | no change | -0.64 | 0.7 | inactive
CT55 (cancer/testis antigen 55) | no change | no change | 1.02 | -0.7 | inactive
ZDHHC8 (zDHHC palmitoyltransferase 8) | no change | no change | -0.78 | 1.1 | inactive
KCNAB1 | no change | no change | -0.45 | -0.04 | inactive
LAMP5 (lysosome associated membrane protein 5) | no change | no change | 0.41 | -0.08 | inactive
MYRIP (myosin VIIA and Rab interacting protein) | no change | no change | 0.02 | 0.91 | inactive
OR4F5 (olfactory receptor family 4 subfamily F member 5) | no change | no change | 0.1 | -0.82 | inactive
SRSF3 (serine and arginine rich splicing factor 3) | no change | no change | -3.04 | 3.58 | inactive
SPG21 (SPG21 abhydrolase domain containing, maspardin) | no change | no change | -0.26 | 0.47 | inactive
KLHL8 (kelch like family member 8) | no change | no change | 0.06 | 3.23 | inactive
POLR1E (RNA polymerase I subunit E) | no change | no change | 0.25 | 1.52 | inactive
CDCA8 (cell division cycle associated 8) | no change | no change | -1.22 | 5.64 | inactive
OR5AS1 (olfactory receptor family 5 subfamily AS member 1) | no change | no change | 0.94 | -0.72 | inactive
SERPINA7 (serpin family A member 7) | no change | no change | 0.6 | 0.38 | inactive
AMBP (alpha-1-microglobulin/bikunin precursor) | no change | no change | -2.23 | 1.64 | inactive
C3orf22 (chromosome 3 open reading frame 22) | no change | no change | -0.72 | 0.54 | inactive
RAB5IF (RAB5 interacting factor) | no change | no change | -1.73 | -0.39 | inactive
GPRC5B (G protein-coupled receptor class C group 5 member B) | no change | no change | -0.16 | -0.79 | inactive
GOLGA8EP (golgin A8 family member E, pseudogene) | no change | no change | 0.16 | -0.92 | inactive
ECSCR | no change | no change | 0.54 | -0.99 | inactive
KAT2A (lysine acetyltransferase 2A) | no change | no change | 1.07 | -0.9 | inactive
MRPS9 (mitochondrial ribosomal protein S9) | no change | no change | -1.19 | -1.73 | inactive
MAP3K6 (mitogen-activated protein kinase kinase kinase 6) | no change | no change | -0.44 | -0.04 | inactive
COA3 (cytochrome c oxidase assembly factor 3) | no change | no change | 0.28 | 0.14 | inactive
RECK (reversion inducing cysteine rich protein with kazal motifs) | no change | CA1 (caspase activation) | -0.08 | 7.44 | active
IL22RA2 (interleukin 22 receptor subunit alpha 2) | no change | no change | 1.14 | 0.46 | inactive
FAM9A (family with sequence similarity 9 member A) | no change | no change | -0.2 | 0.45 | inactive
WNK2 (WNK lysine deficient protein kinase 2) | no change | no change | 0.82 | -0.42 | inactive
BORCS6 (BLOC-1 related complex subunit 6) | no change | no change | -2.5 | 0.54 | inactive
ZBTB2 (zinc finger and BTB domain containing 2) | no change | CA2 (caspase activation) | -3.77 | 5.99 | active
COXFA4L2 (cytochrome c oxidase hypoxia associated subunit FA4L2) | no change | no change | 1.32 | -0.4 | inactive
S100A14 (S100 calcium binding protein A14) | no change | no change | 0.25 | -0.5 | inactive
CNPY2 (canopy FGF signaling regulator 2) | no change | no change | 1.68 | -0.71 | inactive
LEMD2 (LEM domain nuclear envelope protein 2) | no change | no change | 0.45 | -1.12 | inactive
BTBD6 (BTB domain containing 6) | no change | no change | -0.25 | -0.31 | inactive
TAF13 (TATA-box binding protein associated factor 13) | no change | no change | 0.74 | 0.82 | inactive
ANK1 (ankyrin 1) | no change | no change | 0.52 | 2.48 | inactive
LIN54 (lin-54 DREAM MuvB core complex component) | no change | no change | 0.78 | 1.08 | inactive
INSYN1 (inhibitory synaptic factor 1) | no change | no change | 0.62 | 1.29 | inactive
ATP6V1G2 (ATPase H+ transporting V1 subunit G2) | no change | no change | 0.18 | -0.34 | inactive
CD1A (CD1a molecule) | no change | no change | 0.07 | -0.8 | inactive
HOXA4 (homeobox A4) | no change | no change | 0.36 | 1 | inactive
SOX15 (SRY-box transcription factor 15) | no change | no change | 0.18 | 1.31 | inactive
UBA2 (ubiquitin like modifier activating enzyme 2) | no change | no change | -0.95 | -0.68 | inactive
CRTAC1 (cartilage acidic protein 1) | no change | no change | 0.57 | -0.43 | inactive
RPL37A (ribosomal protein L37a) | no change | no change | -4.63 | -0.8 | inactive
DCLRE1C (DNA cross-link repair 1C) | no change | no change | 0.14 | 0.49 | inactive
IFNAR2 (interferon alpha and beta receptor subunit 2) | no change | no change | 0.74 | -0.88 | inactive
PLEKHG2 (pleckstrin homology and RhoGEF domain containing G2) | no change | no change | 0.53 | 0.12 | inactive
HLA-L (major histocompatibility complex, class I, L (pseudogene)) | no change | no change | -2.63 | 0.82 | inactive
OR10H3 (olfactory receptor family 10 subfamily H member 3) | no change | no change | 0.71 | 0.2 | inactive
CCDC25 (coiled-coil domain containing 25) | no change | no change | -1.82 | -0.29 | inactive
MEGF8 (multiple EGF like domains 8) | no change | no change | -0.24 | -0.8 | inactive
TTC22 (tetratricopeptide repeat domain 22) | RV1 (reduced viability) | no change | -3.26 | 1.73 | active
